Measurements as given in PMC5112516.
Construct, isoform or probe ends are uncertain for at least one entry. At least one verdict rests on a figure or table, not on a statement of the authors. For some assays here: Tags and fusion partners may be left off the protein sequences shown.

How the values were obtained:
Test in all cases: ELISA
Settings in all cases: 200 nM protein, low salt; ELISA: 10 mM KH2PO4, 50 mM KCl, pH 7, 0.1% Tween 20; recombinant protein; protein details: N-term RGSHHHHHHGS after Met1, C-term LN; label: 3'-biotin on plus strand
[1] = test system: Mcu7
[2] = target: T1, Sac7e (Sulfolobus acidocaldarius) (UniProt P13125)
T1 sequence (looked up, limits assumed): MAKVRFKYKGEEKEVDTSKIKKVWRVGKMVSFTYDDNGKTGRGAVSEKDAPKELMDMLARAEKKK

[3] = target: Sso7d (Sulfolobus solfataricus) (UniProt P39476)
[4] = target: Ssh7a (Sulfolobus shibatae) (UniProt P61990)
[5] = test system: Sis7b
[6] = target: Ssh7b (Sulfolobus shibatae) (UniProt O59632)
[7] = target: Aho7a (Acidianus hospitalis) (UniProt F4B991)
[8] = target: Aho7b (Acidianus hospitalis) (UniProt F4B9I5)
[9] = target: Aho7c (Acidianus hospitalis) (UniProt F4B8X5)
[10] = target: Sac7d (Sulfolobus acidocaldarius) (UniProt P13123)
[11] = test system: Sto7
[12] = test system: Sis7a
[13] = test system: Mse7

Measured: binding result

AAAAAAAAAAAAAAAAAAAAAAAAAAAAAAAAAAAAAAAA (double strand) [poly(dA).poly(dT) 40 bp]
binds: [1] | [2] | [3] | [4] | [5] | [6] | [7] | [8] | [9] | [10] | [11] | [12] | [13]

ACACACACACACACACACACACACACACACACACACACAC (double strand) [poly(dAdC).poly(dGdT) 40 bp]
binds: [1] | [2] | [3] | [4] | [5] | [6] | [7] | [8] | [9] | [10] | [11] | [12] | [13]

AGAGAGAGAGAGAGAGAGAGAGAGAGAGAGAGAGAGAGAG (double strand) [poly(dAdG).poly(dCdT) 40 bp]
binds: [1] | [2] | [3] | [4] | [5] | [6] | [7] | [8] | [9] | [10] | [11] | [12] | [13]

ATATATATATATATATATATATATATATATATATATATAT (double strand) [[poly(dAdT)]2 40 bp]
binds: [1] | [2] | [3] | [4] | [5] | [6] | [7] | [8] | [9] | [10] | [11] | [12] | [13]

GCGCGCGCGCGCGCGCGCGCGCGCGCGCGCGCGCGCGCGC (double strand) [[poly(dGdC)]2 40 bp]
binds: [1] | [2] | [3] | [4] | [5] | [6] | [7] | [8] | [9] | [10] | [11] | [12] | [13]
